# Part of at least one peptide drawing is inferred or uncertain, most often the ends.
# Test system: NIH/Swiss mice
# Test: Oral glucose tolerance test (OGTT), glucose lowering
# Conditions: IP, 2 hour fasted mice
structure (smiles),measurement,value
"CC[C@H](C)[C@H](NC(=O)[C@H](Cc1ccccc1)NC(=O)[C@H](CCC(=O)O)NC(=O)[C@H](CCCCN)NC(=O)[C@H](C)NC(=O)[C@H](C)NC(=O)[C@H](CCC(N)=O)NC(=O)CNC(=O)[C@H](CCC(=O)O)NC(=O)[C@H](CC(C)C)NC(=O)[C@H](Cc1ccc(O)cc1)NC(=O)[C@H](CO)NC(=O)[C@H](CO)NC(=O)[C@@H](NC(=O)[C@H](CC(=O)O)NC(=O)[C@H](CO)NC(=O)[C@@H](NC(=O)[C@H](Cc1ccccc1)NC(=O)[C@@H](NC(=O)CNC(=O)[C@H](CCC(=O)O)NC(=O)[C@H](C)NC(=O)[C@@H](N)Cc1c[nH]cn1)[C@@H](C)O)[C@@H](C)O)C(C)C)C(=O)N[C@@H](C)C(=O)N[C@@H](Cc1c[nH]c2ccccc12)C(=O)N[C@@H](CC(C)C)C(=O)N[C@H](C(=O)N[C@@H](CCCCN)C(=O)NCC(=O)N[C@@H](CCCNC(=N)N)C(=O)NCC(=O)NCC(=O)NCC(=O)NCCCC[C@H](N)C(=O)N1CCSC1C#N)C(C)C (stereo partly drawn) [Compound 4845, GLP-1-(7-37)-GG-(S)-2,6-diamino-1-(thiazolidin-2-cyano-3-yl)hexan-1-one amide]","glucose lowering in OGTT (FIGS. 7, 8)",retain the glucose-lowering activity of GLP-1
